Data as given in patent US20260041753A1, “RESPIRATORY SYNCYTIAL VIRUS SURFACE GL[…], CONJUGATES, AND USES THEREOF” (Dana-Farber Cancer Institute, Inc., priority 2023, published 2026).
Not every detail of the peptide structures is certain; ends, links or a residue may be inferred. Where a SMILES comes first, the peptide text is derived from it. Bridges are numbered along the chain shown (N, C = ends). Side-chain parts run from the residue outwards. [ ]: non-standard residue; d: D form. The star is where a group is joined. ξ: configuration not given here. Acetyl(2-S-3ξ-cholesteryl) = CC(C)CCC[C@@H](C)[C@H]1CC[C@H]2[C@@H]3CC=C4CC(SCC(=O)*)CC[C@]4(C)[C@H]3CC[C@]12C; R8 = C=CCCCCCC[C@@](C)(N)C(=O)O; PEG4 = NCCOCCOCCOCCOCCC(=O)O; S5 = C=CCCC[C@](C)(N)C(=O)O

What was measured:
[1] = tested on: live human Respiratory Syncytial Virus with Green Fluorescent Protein (RSV-GFP1); assay type: cell-based
Experimental: Antiviral Efficacy Assays: The efficiency of the peptide-cholesterol conjugates of the invention in preventing and treating infection of live human Respiratory Syncytial Virus with Green Fluorescent Protein (RSV-GFP1) are evaluated in monolayer cell cultures. A549 cells plated in 384-well format are treated for 30 min with a serial dilution of stapled peptides (e.g. 1-5 […] or a fixed dose, e.g. […]), performed in quadruplicate, followed by addition of GFP-RSV live virus assay (0.75-1.25 μL of virus per well) and incubation for 48-72 hours. Infected cells are then washed with PBS. Hoechst 33342 (cell permeable nuclear dye) and DRAQ7 (cell impermeable nuclear dye) are added and the plate imaged on a Molecular Devices ImageXpress Micro Confocal Laser at 4× magnification. GFP (+) cells are counted and total GFP(+) cells or percent GFP(+) cells are plotted using Prism software (Graphpad). Cytotoxicity is determined by the ratio of DRAQ7 (+) Hoechst 33342 (+) to DRAQ7 (−) Hoechst 33342 (+) cells.

[2] = pI of stapled lipopeptides; assay type: physicochemical

For `CC[C@H](C)[C@H](NC(=O)[C@H](CO)NC(=O)[C@H](C)NC(=O)[C@H](CC(=O)O)NC(=O)[C@H](Cc1ccccc1)NC(C)=O)C(=O)N[C@@H](CO)C(=O)N[C@@H](CCC(N)=O)C(=O)N[C@H](C(=O)N[C@@H](CC(N)=O)C(=O)N[C@@H](CCC(=O)O)C(=O)N[C@@H](CCCCN)C(=O)N[C@H](C(=O)N[C@@H](CC(N)=O)C(=O)N[C@@H](CCC(N)=O)C(=O)N[C@@H](CO)C(=O)N[C@@H](CC(C)C)C(=O)N[C@]1(C)CCCCCCC=CCCC[C@@](C)(C(=O)N[C@@H](CC(C)C)C(=O)N[C@@H](CC(C)C)C(=O)N[C@@H](Cc2c[nH]cn2)C(=O)N[C@@H](CC(N)=O)C(=O)N[C@H](C(=O)N[C@@H](CCCCNC(=O)CCOCCOCCOCCOCCNC(=O)CSC2CC[C@@]3(C)C(=CC[C@H]4[C@@H]5CC[C@H]([C@H](C)CCCC(C)C)[C@@]5(C)CC[C@@H]43)C2)C(N)=O)C(C)C)NC(=O)[C@H](CC(=O)O)NC(=O)[C@H](CO)NC(=O)[C@H](CCCCN)NC(=O)[C@H](CCCNC(=N)N)NC(=O)[C@H]([C@@H](C)CC)NC(=O)[C@H](Cc2ccccc2)NC1=O)[C@@H](C)CC)C(C)C` (stereo partly shown) [SEQ ID NO: 21, FDASISQVNEKINQSL8FIRKSDXLLHNV*] (Ac-FDASISQVNEKINQSL[R8]FIRKSD[S5]LLHNVK([PEG4-Acetyl(2-S-3ξ-cholesteryl)])-NH2; staple 17-24), the “IC50, antiviral activity in live RSV virus assay” value ([1]; GFP-RSV live virus, A549 cells, read-out at 48 hours (FIGS. 13, 16, 17)) was “single digit nanomolar”, the “antiviral activity in the GFP-RSV live virus assay (staple and PEG scanning)” value ([1]; dose of 2 μM, RSV-GFP in A549 cells after 48 hours (FIG. 15)) was “potent activity” and the “improvement in anti-viral activity compared to the singly stapled RSV HR2 peptide of SEQ ID NO: 4” value ([1]; versus single staple alone with an additional 6 HR2 amino acids at the C-terminus) was “three orders of magnitude”. The pI [2] was 8.
